Results as given in publication PMC7865452.
These are yes or no findings as the source states them, for the method shown. Binding seen in cells or lysates may run through a third protein. Here binding means that the protein was enriched with, or labelled near, the bait; the list need not be complete.

By UniProt entry, the sequences of proteins in these tests, tags left out.
UniProt O75340: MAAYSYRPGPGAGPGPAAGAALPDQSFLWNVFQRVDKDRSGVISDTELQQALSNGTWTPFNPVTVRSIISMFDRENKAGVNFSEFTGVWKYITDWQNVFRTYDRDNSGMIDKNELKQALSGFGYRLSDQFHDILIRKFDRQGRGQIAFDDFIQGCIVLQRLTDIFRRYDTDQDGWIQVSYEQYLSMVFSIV
UniProt O95292: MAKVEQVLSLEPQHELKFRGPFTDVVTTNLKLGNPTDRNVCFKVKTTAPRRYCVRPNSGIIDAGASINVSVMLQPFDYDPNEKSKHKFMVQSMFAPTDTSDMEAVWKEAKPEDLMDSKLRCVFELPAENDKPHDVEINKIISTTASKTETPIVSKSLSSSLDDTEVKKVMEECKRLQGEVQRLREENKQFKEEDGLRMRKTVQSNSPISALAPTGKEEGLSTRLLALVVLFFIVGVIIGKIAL

T1: CDIP1 induced with doxycycline in MCF-7 Tet-On CDIP1 cells (human) (UniProt Q9H305)
T1 sequence: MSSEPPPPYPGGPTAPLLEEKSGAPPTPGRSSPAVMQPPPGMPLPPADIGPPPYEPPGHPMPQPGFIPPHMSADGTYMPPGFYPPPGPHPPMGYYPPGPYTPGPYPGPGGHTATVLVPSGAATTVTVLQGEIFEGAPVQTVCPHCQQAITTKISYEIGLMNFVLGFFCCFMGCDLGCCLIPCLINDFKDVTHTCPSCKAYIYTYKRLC

B1: Peflin, endogenous in MCF-7 Tet-On CDIP1 cells (protein, UniProt Q9UBV8 1-284)
chain: MASYPYRQGCPGAAGQAPGAPPGSYYPGPPNSGGQYGSGLPPGGGYGGPAPGGPYGPPAGGGPYGHPNPGMFPSGTPGGPYGGAAPGGPYGQPPPSSYGAQQPGLYGQGGAPPNVDPEAYSWFQSVDSDHSGYISMKELKQALVNCNWSSFNDETCLMMINMFDKTKSGRIDVYGFSALWKFIQQWKNLFQQYDRDRSGSISYTELQQALSQMGYNLSPQFTQLLVSRYCPRSANPAMQLDRFIQVCTQLQVLTEAFREKDTAVQGNIRLSFEDFVTMTASRML
B2: B-cell-receptor-associated protein 31 (BAP31), endogenous in MCF-7 Tet-On CDIP1 cells (protein, UniProt P51572 1-246)
chain: MSLQWTAVATFLYAEVFVVLLLCIPFISPKRWQKIFKSRLVELLVSYGNTFFVVLIVILVLLVIDAVREIRKYDDVTEKVNLQNNPGAMEHFHMKLFRAQRNLYIAGFSLLLSFLLRRLVTLISQQATLLASNEAFKKQAESASEAAKKYMEENDQLKKGAAVDGGKLDVGNAEVKLEEENRSLKADLQKLKDELASTKQKLEKAENQVLAMRKQSEGLTKEYDRLLEEHAKLQAAVDGPMDKKEE

molecular target: T1, CDIP1 induced with doxycycline in MCF-7 Tet-On CDIP1 cells (human); assay: affinity purification with mass spectrometry; MCF-7 Tet-On CDIP1 cells treated with DOX (100 ng/mL, 24 h); HKM buffer, 1% CHAPS; antibody against CDIP1, Protein G magnetic beads; in-gel digestion, LC-MS/MS

binding | Molecule
binds | ALG-2, endogenous in MCF-7 Tet-On CDIP1 cells (from UniProt O75340 1-191)
binds | Vesicle-associated membrane protein-associated protein B (VAPB), endogenous in MCF-7 Tet-On CDIP1 cells (from UniProt O95292 1-243)
binds | B1
binds | B2
